# PubChem BioAssay AID540256 (National Center for Advancing Translational Sciences (NCATS), 2011)
# Hit rate of the full screen: of about 300,000 compounds, about 3,700 (1.2%) were called active. Inconclusive means that the source gave no clear call. Such entries were picked first, then a sample of the others. Calls come from the whole dose curve; tested in HEK293 cells. Where the call is inconclusive, the potency comes from a doubtful curve fit.
# Experiment: qHTS for Inhibitors of binding or entry into cells for Lassa Virus; note: nearly all actives have a fitted effect of over 50% in size
# Conditions: Lassa virus pseudotype entry inhibition, cell reporter; activity change, negative = inhibition: at 37.9 µM (top of the series) unless noted
# % is set by controls: 0 for no effect and ±100 for the full control effect; potency is the fitted concentration of half-maximal effect.
Structure (SMILES),Potency,"activity change, negative = inhibition"
CCc1ccc(-c2cc(C)no2)cc1S(=O)(=O)N1CCN(c2ccc(OC)cc2)CC1,"inconclusive: 35.5 µM [inhibitor, single point]",–
Cc1ccc(CN2CCN(Cc3ccccc3C(F)(F)F)CC2)cc1,"inconclusive: 25.9 µM [inhibitor, single point]",–
CCn1c(SCC(=O)N2CCCc3ccccc32)nnc1-c1c[nH]c2ccccc12,"inconclusive: 35.5 µM [inhibitor, single point]",–
O=[N+]([O-])c1ccccc1NCCOc1ccccc1,"inconclusive: 18.4 µM [activator, partial curve]",–
Cc1nc2c(-c3ccc(F)cc3)c(C)nn2c(C)c1CCC(=O)N1CCC2(CC1)OCCO2,"inconclusive: 0.259 µM [inhibitor, single point]",–
Cc1ccc(NC(=O)CN2CCc3ccccc3C2)cc1S(=O)(=O)N1CCOCC1,"inconclusive: 35.5 µM [inhibitor, partial curve, poor fit]",–
O=C(OCc1ccc([N+](=O)[O-])cc1)c1cc(S(=O)(=O)N2CCCCC2)ccc1N1CCOCC1,"inconclusive: 4.47 µM [inhibitor, partial curve, poor fit]",–
O=[N+]([O-])c1ccc2nc(-[n+]3c(-c4ccccc4)cc(-c4ccccc4)cc3-c3ccccc3)[nH]c2c1,active: 23.1 µM,–
Cc1cc(C)c2c(N)c3cccc(C)c3nc2n1,"inconclusive: 5.01 µM [inhibitor, partial curve, poor fit]",–
Cc1cccc(N2CC34C=CC(O3)C(C(=O)O)C4C2=O)c1 (configuration not stated),"inconclusive: 5.01 µM [activator, single point]",–
O=C(C1CCCO1)N1CCN(C(=S)Nc2cccc(Cl)c2)CC1 (configuration not stated),"inconclusive: 29.1 µM [inhibitor, single point]",–
O=C(NCc1ccco1)/C(=C/C=C\c1ccccc1)NC(=O)c1ccc(Br)o1,"inconclusive: 15.8 µM [inhibitor, single point]",–
N/C(=N\OC(=O)c1ccc2ccccc2c1)c1ccccn1,"inconclusive: 1.41 µM [inhibitor, full curve, poor fit]",–
Cc1ccc(Nc2c(-c3ccc(N(C)C)cc3)nc3nc[nH]n23)cc1,"inconclusive: 3.55 µM [inhibitor, partial curve, poor fit]",–
Cc1ccc(S(=O)(=O)NCC2CCC(C(=O)NCc3ccc(F)cc3)CC2)cc1 (configuration not stated),"inconclusive: 20 µM [activator, single point]",–
CCCn1ccc2c(OCC(=O)Nc3cc(C)ccc3C)cccc2c1=O,"inconclusive: 15.8 µM [inhibitor, single point]",–
CCc1ccc(CNC(=O)c2cc3cc(S(=O)(=O)N4CCCCC4)ccc3n2C)cc1,"inconclusive: 10 µM [inhibitor, partial curve, poor fit]",–
CCc1ccc(C(=O)COC(=O)C(Cc2ccccc2)NC(=O)C2CCC(C)CC2)cc1 (configuration not stated),"inconclusive: 8.2 µM [inhibitor, partial curve, poor fit]",–
CC(C)CCNC(=O)NC(=O)COC(=O)c1cc(S(=O)(=O)N2CCOCC2)ccc1N1CCCCC1,"inconclusive: 14.1 µM [inhibitor, partial curve, poor fit]",–
O=C1c2ccccc2C(=O)N1CCSc1nnc(-c2ccco2)n1Cc1ccccc1,"inconclusive: 20.6 µM [activator, single point]",–
Cc1ccc(NC(=O)c2cc(=O)c3ccccc3o2)cc1,"inconclusive: 3.26 µM [activator, full curve, poor fit]",–

Structure (SMILES),Potency,"activity change, negative = inhibition"
Cc1ccc(NC(=O)CSc2nc3ccccc3c3nc4ccccc4n23)cc1,"inconclusive: 10.3 µM [inhibitor, partial curve, poor fit]",–
CCn1c(SCCOc2ccc(Cl)cc2)nnc1-c1cccs1,–,inactive: 3.13%
Cc1ccc(-n2c(/C=C/c3ccc(Br)s3)nc3ccccc3c2=O)cc1C,"inconclusive: 6.31 µM [inhibitor, single point]",–
CC(C)(C)NC(=O)C(c1ccco1)N(Cc1ccc2c(c1)OCO2)C(=O)Cn1nnc2ccccc21 (configuration not stated),"inconclusive: 5.17 µM [inhibitor, partial curve, poor fit]",–
CC(=O)c1sc(N/N=C\c2ccc(C)cc2)nc1C,"inconclusive: 1.26 µM [activator, single point]",–
CC(=O)c1sc(NC(=O)COc2ccc([N+](=O)[O-])cc2)nc1C,–,inactive: 21.2% [at 46.1 µM]
CSc1cccc(NC(=S)N(Cc2ccccc2)Cc2cccnc2)c1,"inconclusive: 20 µM [inhibitor, partial curve, poor fit]",–
COc1ccccc1N(C)c1cc2c(c3c1ccn3C)C1CCC2O1 (configuration not stated),"inconclusive: 0.396 µM [inhibitor, full curve, poor fit]",–
Cc1ccccc1C(=O)NCC(=O)OC(C)C(=O)NCc1ccco1 (configuration not stated),"inconclusive: 11.2 µM [activator, single point]",–
CCSc1nsc(NC(=O)Nc2cccc(F)c2)n1,"inconclusive: 31.6 µM [inhibitor, single point]",–
COC(=O)CC1Oc2ccccc2-n2cc(-c3ccc(C)cc3)nc21 (configuration not stated),"inconclusive: 2.82 µM [inhibitor, partial curve, poor fit]",–
Cc1ccc(C)c(NC(=O)C2(C)CC3c4ccccc4C2c2ccccc23)c1 (configuration not stated),"inconclusive: 35.5 µM [inhibitor, single point]",–
COc1cccc(CNCCSc2nnnn2C)c1OCc1ccccc1,"inconclusive: 1.12 µM [inhibitor, partial curve, poor fit]",–
CC(C)CNC(=O)CCc1c[nH]c2ccccc12,"inconclusive: 20 µM [inhibitor, partial curve, poor fit]",–
CCOC(=O)C1CCCN(CC(=O)c2ccc(F)cc2)C1 (configuration not stated),"inconclusive: 5.62 µM [inhibitor, single point]",–
CC(C)C(=O)OCc1cn(-c2ccc(Cl)c(Cl)c2)nn1,–,inactive: -2.66%
CC(=O)N1CCN(c2ccc(NC(=O)c3ccccc3C)cc2)CC1,–,inactive: 5.5%
OC(CN=c1sc2ccccc2n1CC(O)COc1ccccc1)COc1ccccc1 (configuration not stated),active: 20.6 µM,–
O=[N+]([O-])c1cc(S(=O)(=O)NCCN2CCOCC2)ccc1Cl,"inconclusive: 35.5 µM [activator, single point]",–
COC(=O)C1=C(C)N(Cc2ccccc2)C(=NCc2cc(OC)c(OC)c(OC)c2)NC1c1cccc(F)c1 (configuration not stated),"inconclusive: 5.31 µM [inhibitor, single point]",–
Cc1cc2c(cc1C)C(c1cccc([N+](=O)[O-])c1)CC(=O)N2 (configuration not stated),"inconclusive: 11.2 µM [inhibitor, partial curve, poor fit]",–

# 3 records picked at random from the list so far:
Structure (SMILES),Potency,"activity change, negative = inhibition"
OC(CN=c1sc2ccccc2n1CC(O)COc1ccccc1)COc1ccccc1 (configuration not stated),active: 20.6 µM,–
CC(C)(C)NC(=O)C(c1ccco1)N(Cc1ccc2c(c1)OCO2)C(=O)Cn1nnc2ccccc21 (configuration not stated),"inconclusive: 5.17 µM [inhibitor, partial curve, poor fit]",–
CC(C)C(=O)OCc1cn(-c2ccc(Cl)c(Cl)c2)nn1,–,inactive: -2.66%

# Further structures.

Structure (SMILES),Potency,"activity change, negative = inhibition"
COc1ccc2nc(NCc3ccccc3)[nH]c2c1,"inconclusive: 18.3 µM [activator, single point]",–
Cc1cccnc1NC(=S)Nc1ncccc1C,"inconclusive: 8.91 µM [inhibitor, single point]",–
Cc1ccc(NC(=O)CN2C(=O)/C(=C\c3cccs3)SC2=S)cc1,"inconclusive: 7.94 µM [activator, partial curve, poor fit]",–
CCOc1c(C)cc(-c2ncccc2O)cc1C,inactive,–
Cc1ccc(Nc2nnc(-c3ccc(C)c(S(=O)(=O)N4CCN(C)CC4)c3)c3ccccc23)cc1,–,inactive: -12.4% [at 46.1 µM]
O=C1CC(NNc2ccccc2)C(=O)N1c1ccc(N2CCCCC2)cc1 (configuration not stated),"inconclusive: 8.91 µM [inhibitor, partial curve, poor fit]",–
CCC1CN(C(=O)N2CCC(C(=O)NCCc3ccccc3Cl)CC2)c2cc(C)ccc2O1 (configuration not stated),"inconclusive: 8.91 µM [inhibitor, partial curve, poor fit]",–
CC(=O)Nc1ccc(NC(=O)Cc2sc(-c3cccnc3)nc2-c2ccc(C)cc2)cc1,–,inactive: -26.4% [at 46.1 µM]
CC1=Nc2cc(C(=O)NCCCOC(C)C)ccc2Sc2ccccc21,"inconclusive: 4.11 µM [inhibitor, full curve, poor fit]",–
COc1ccc(NC2CCCN(C(=O)COc3ccc(C)cc3)C2)cc1 (configuration not stated),"inconclusive: 0.447 µM [activator, partial curve]",–
Cc1ccc(CN(C(=O)c2ccccc2)c2ccccn2)o1,"inconclusive: 2.51 µM [activator, full curve, poor fit]",–
CCCCc1ccc(NC2=NCCCS2)cc1,"inconclusive: 35.5 µM [inhibitor, partial curve, poor fit]",–
NC1=NC(=O)/C(=C/c2cn(Cc3ccccc3)c3ccccc23)S1,"inconclusive: 7.08 µM [inhibitor, full curve, poor fit]",–
CCc1ccc(NC(=O)CN(c2ccc(C)cc2)S(=O)(=O)c2cccs2)cc1,–,inactive: -15.8% [at 46.1 µM]
Cc1ccccc1C(=O)NCC(c1ccco1)N1CCc2ccccc21 (configuration not stated),"inconclusive: 12.6 µM [inhibitor, single point]",–
COc1ccc(Oc2nc(C(F)(F)F)nc3ccccc23)cc1,"inconclusive: 14.1 µM [inhibitor, partial curve, poor fit]",–
COc1ccccc1CNC(=O)C(=O)NCC1OCCN1S(=O)(=O)c1ccc(Br)cc1 (configuration not stated),"inconclusive: 22.4 µM [inhibitor, single point]",–
CCN(CC)S(=O)(=O)c1ccc(N2CCOCC2)c(NC(=O)c2ccc3c(c2)OCCO3)c1,"inconclusive: 35.5 µM [inhibitor, single point]",–
CNC(=O)C1CCC(Cn2c(=O)c3sccc3n(CC(=O)Nc3ccc(C)c(C)c3)c2=O)CC1 (configuration not stated),–,inactive: -22.5% [at 46.1 µM]
CCOc1ccc(-c2nnn(CC(=O)NCc3ccc(C)cc3)n2)cc1,"inconclusive: 7.08 µM [inhibitor, partial curve]",–
